Results as given in article PMC9458672.
These are yes or no findings as the source states them, for the method shown.

The chains behind the UniProt entries cited, without tags or fusion partners.
UniProt Q15286: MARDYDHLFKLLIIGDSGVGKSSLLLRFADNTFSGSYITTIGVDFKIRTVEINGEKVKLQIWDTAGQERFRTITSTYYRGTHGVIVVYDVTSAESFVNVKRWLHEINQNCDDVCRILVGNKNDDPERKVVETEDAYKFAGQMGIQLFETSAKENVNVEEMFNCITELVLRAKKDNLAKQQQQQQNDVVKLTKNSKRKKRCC
UniProt P62330: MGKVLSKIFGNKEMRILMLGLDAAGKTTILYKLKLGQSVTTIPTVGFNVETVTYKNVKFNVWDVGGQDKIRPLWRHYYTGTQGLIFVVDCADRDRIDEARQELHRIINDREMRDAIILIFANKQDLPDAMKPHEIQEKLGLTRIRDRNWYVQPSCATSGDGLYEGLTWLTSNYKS
UniProt Q01968: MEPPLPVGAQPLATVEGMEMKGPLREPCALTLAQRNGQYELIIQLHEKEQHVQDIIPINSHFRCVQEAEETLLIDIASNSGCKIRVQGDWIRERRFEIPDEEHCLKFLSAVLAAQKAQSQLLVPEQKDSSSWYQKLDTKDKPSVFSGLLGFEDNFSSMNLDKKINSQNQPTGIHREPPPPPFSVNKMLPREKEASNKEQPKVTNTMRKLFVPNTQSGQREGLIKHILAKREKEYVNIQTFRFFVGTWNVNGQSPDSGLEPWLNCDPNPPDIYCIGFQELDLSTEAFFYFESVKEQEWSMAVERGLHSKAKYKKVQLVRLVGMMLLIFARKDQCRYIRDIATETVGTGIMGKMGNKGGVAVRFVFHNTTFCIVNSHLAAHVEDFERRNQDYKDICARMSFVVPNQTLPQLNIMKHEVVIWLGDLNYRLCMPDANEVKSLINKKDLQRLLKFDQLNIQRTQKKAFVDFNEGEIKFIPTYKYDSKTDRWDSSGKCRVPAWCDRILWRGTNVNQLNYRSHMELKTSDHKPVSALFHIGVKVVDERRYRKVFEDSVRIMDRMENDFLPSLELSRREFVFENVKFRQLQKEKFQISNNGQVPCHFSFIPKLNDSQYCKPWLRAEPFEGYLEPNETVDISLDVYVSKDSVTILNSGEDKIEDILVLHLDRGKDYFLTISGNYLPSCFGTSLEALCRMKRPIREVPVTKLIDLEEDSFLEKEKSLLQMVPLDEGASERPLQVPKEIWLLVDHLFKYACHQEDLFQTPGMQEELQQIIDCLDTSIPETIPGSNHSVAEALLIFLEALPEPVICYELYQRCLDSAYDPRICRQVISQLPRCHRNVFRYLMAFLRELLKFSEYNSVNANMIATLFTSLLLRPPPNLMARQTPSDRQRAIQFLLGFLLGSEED

Key:
[1] = target: Tom20-GFP-Rab35 co-expressed with TagRFP-ACAP2 (Rab35/ACAP2 complex at mitochondria) (UniProt Q15286); assay: mitochondrial mislocalisation (Tom20 tethering) by fluorescence microscopy; three proteins expressed together in HUVECs: Tom20-GFP-Rab35, TagRFP-ACAP2 and HA-Arf6; relocation of HA-Arf6 to mitochondria read by imaging
[2] = target: T1, mitochondrial-targeted ACAP2 (UniProt Q15057); assay: mitochondrial mislocalisation (Tom20 tethering) by fluorescence microscopy; bait tethered to mitochondria by a Tom20 tag and co-expressed with the candidate partner (or stained for the endogenous one) in HUVECs; relocation of the partner to mitochondria read by imaging and Pearson's coefficient
T1 sequence: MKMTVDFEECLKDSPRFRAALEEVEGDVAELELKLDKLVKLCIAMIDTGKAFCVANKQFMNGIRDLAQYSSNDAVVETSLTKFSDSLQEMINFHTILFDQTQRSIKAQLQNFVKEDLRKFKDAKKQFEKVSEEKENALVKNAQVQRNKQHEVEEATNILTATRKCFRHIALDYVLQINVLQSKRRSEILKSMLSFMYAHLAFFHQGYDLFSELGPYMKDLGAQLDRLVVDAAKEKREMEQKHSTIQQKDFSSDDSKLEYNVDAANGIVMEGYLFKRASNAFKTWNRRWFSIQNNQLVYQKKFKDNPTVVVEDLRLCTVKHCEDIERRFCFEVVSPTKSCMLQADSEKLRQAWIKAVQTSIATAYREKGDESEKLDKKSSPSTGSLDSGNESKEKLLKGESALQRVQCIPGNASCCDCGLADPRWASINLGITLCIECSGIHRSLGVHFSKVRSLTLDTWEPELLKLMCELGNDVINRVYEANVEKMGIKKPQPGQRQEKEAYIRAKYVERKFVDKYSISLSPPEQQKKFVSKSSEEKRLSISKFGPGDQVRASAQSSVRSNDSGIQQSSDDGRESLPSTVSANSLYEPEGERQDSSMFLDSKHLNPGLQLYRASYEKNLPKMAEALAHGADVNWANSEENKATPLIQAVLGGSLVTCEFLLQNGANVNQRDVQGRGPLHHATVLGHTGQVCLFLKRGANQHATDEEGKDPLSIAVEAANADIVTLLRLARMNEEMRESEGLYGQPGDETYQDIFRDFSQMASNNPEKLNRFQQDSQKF

[3] = target: Tom20-Rab35 wild-type (mitochondrial-targeted Rab35) (UniProt Q15286); assay: as above

Arf6 (overexpressed) (from UniProt P62330 1-175)
binding [1]: no binding
binding [2]: no binding
binding [3]: no binding

OCRL (tagged, overexpressed) (from UniProt Q01968 1-901)
binding [3]: no binding
